Reference: patent US20100247579A1, “THERAPEUTIC AGENT FOR CANCER” (priority 2007, published 2010)
Like-named read-outs stand apart in the source and are kept apart here.

Tests used:
[1] = system: lymphocytes derived from cancer patient No. PT009 expanded with OKT3 and CH-296; experiment: Resistance to anticancer agents, WST-1 GI50 on cultured lymphocytes of cancer patient No. PT009; assay type: cell-based; settings: Homo sapiens, Lymphocyte, day 10 of culture with OKT3 and CH-296, 20 hours with drug
Protocol: After that, the suspension was stained by the trypan blue staining method to calculate the viable cell count, and then subjected to each experiment.
(§1) On the other hand, the IL-2/5HRPMI was added to the control group in 50 μL/well each.
(§2) These culture plates were incubated at 37° C. for 20 hours in the presence of 5% CO2. After the incubation, WST-1 (Premix WST-1 Cell Proliferation Assay System, manufactured by Takara Bio Inc.) was added in 20 μL/well each to each well of the plate, and incubated in the presence of 5% CO2 at 37° C. for 4 hours. The plates after the incubation were centrifuged at 500×g at room temperature for 5 minutes. After the centrifugation, 100 μL of the supernatant was collected from each well, and the absorbance was measured at an absorption wavelength of 450 nm and a control wavelength of 630 nm [hereinafter referred to as the absorbance (450 nm-630 nm)] using a microplate reader (manufactured by Bio-Rad Laboratories, Inc., Model Number 680XR), and then the specific absorbance (450 nm-630 nm) was calculated according to the following formula.
(§3) Specific absorbance (450 nm-630 nm)=Absorbance of Test Cell Addition Group (450 nm-630 nm)−Absorbance of Control Group (450 nm-630 nm) Formula 2: […]

[2] = system: expanded lymphocytes derived from a human healthy donor; experiment: Resistance to anticancer agents, WST-1 GI50 on cultured lymphocytes of a human healthy donor; assay type: cell-based; settings: Lymphocyte
Protocol: as §1, §2, §3
Here, a group where only OKT3 was immobilized to the culture equipment in the expansion of the lymphocytes was also set.
However, in the case of paclitaxel, a human AB type serum was used as a solvent for dilution, and for other drugs, 5HRPMI was used for dilution.

- GI50 [1]: 38.9 µg/mL
SMILES: C[C@@H]1C[C@H]2[C@@H]3CCC4=CC(=O)C=C[C@]4(C)[C@@]3(F)[C@@H](O)C[C@]2(C)[C@@]1(O)C(=O)COP(=O)(O)O [Dexamethasone Sodium Phosphate, dexamethasone sodium phosphate]
- GI50 ([2]; healthy donor lymphocytes expanded with OKT3 + CH-296, read-out: GI50 (μg/mL) Initial Stimulation OKT3 + CH-296): 119 µg/mL
- GI50 ([2]; healthy donor lymphocytes expanded with OKT3 alone, read-out: GI50 (μg/mL) Initial Stimulation OKT3): 86.3 µg/mL
